Results from PubChem BioAssay AID330 (DTP/NCI, 2004).
The list is a part of this screen's results and no random one: its compounds were picked by chemical class. Other doses and runs of a compound may be missing. T/C gives the treated animals as a percentage of the vehicle group. For survival time, this PubChem deposit counts one and a half times the control or more as active, and values a quarter to a half above the control carry no call in these data; other NCI protocols may use other cut-offs. Schedule codes are those of the source, read here as Q, the interval in days (D) or hours (H), X, the number of doses. Some entries show no survivor count and are marked so; the dose need not have been tolerated. Some entries hold several experiments; the values are given in rising order.

Tested on: P388 leukemia ip, CD2F1 mice, survival T/C
Assay: NCI In Vivo Anticancer Drug Screen. Data for tumor model P388 Leukemia (intraperitoneal) in CD2F1 (CDF1) mice
Settings: T/C endpoint: median survival time, higher T/C = longer survival

With `CC1=CC2OC3CC4OC(=O)/C=C/C=C/C(C(C)O)OCC/C(C)=C/C(=O)OCC2(CC1)C4(C)C31CO1` (stereo not given) the T/C (dose: 1.56 mg/kg/injection, schedule: Q01DX009 (ip), vehicle: saline with Tween-80) was 127 % of control [survivor count not shown], the T/C (dose: 3.12 mg/kg/injection, schedule: Q01DX009 (ip), vehicle: saline with Tween-80) was 131 % of control [survivor count not shown] and the T/C (dose: 6.25 mg/kg/injection, schedule: Q01DX009 (ip), vehicle: saline with Tween-80) was 123 [survivor count not shown] and 165 % of control [survivor count not shown].

In the case of `CC1=C[C@H]2O[C@@H]3[C@H](O)[C@@H](OC(=O)CCl)[C@](C)([C@@]2(CO)CC1)[C@]31CO1`, the T/C (dose: 1.0 mg/kg/injection, schedule: Q01DX009 (ip), vehicle: saline with Tween-80) is reported as 134 % of control [survivor count not shown], the T/C (dose: 2.0 mg/kg/injection, schedule: Q01DX009 (ip), vehicle: saline with Tween-80) is reported as 140 % of control [survivor count not shown] and the T/C (dose: 4.0 mg/kg/injection, schedule: Q01DX009 (ip), vehicle: saline with Tween-80) is reported as 152 % of control [survivor count not shown].

With `CC1=C[C@H]2O[C@@H]3[C@H](OC(=O)CCl)[C@@H](O)[C@](C)(C2(CO)CC1)[C@@]31CO1` (stereo not given in full) the T/C (dose: 0.75 mg/kg/injection, schedule: Q01DX009 (ip), vehicle: saline + alcohol) was 120 % of control [survivor count not shown], the T/C (dose: 1.5 mg/kg/injection, schedule: Q01DX009 (ip), vehicle: saline + alcohol) was 137 % of control [survivor count not shown] and the T/C (dose: 1.5 mg/kg/injection, schedule: Q01DX009 (ip), vehicle: saline with Tween-80) was 155 % of control [survivor count not shown]. For the same compound, the T/C (dose: 3.0 mg/kg/injection, schedule: Q01DX009 (ip), vehicle: saline + alcohol) was 137 % of control [survivor count not shown], the T/C (dose: 3.0 mg/kg/injection, schedule: Q01DX009 (ip), vehicle: saline with Tween-80) was 168 % of control [survivor count not shown] and the T/C (dose: 6.0 mg/kg/injection, schedule: Q01DX009 (ip), vehicle: saline + alcohol) was 153 % of control [survivor count not shown]. For the same compound, the T/C (dose: 6.0 mg/kg/injection, schedule: Q01DX009 (ip), vehicle: saline with Tween-80) was 180 % of control [survivor count not shown], the T/C (dose: 12.0 mg/kg/injection, schedule: Q01DX009 (ip), vehicle: saline + alcohol) was 170 % of control [survivor count not shown] and the T/C (dose: 12.0 mg/kg/injection, schedule: Q01DX009 (ip), vehicle: saline with Tween-80) was 104 % of control [survivor count not shown].

For `CC1=CC2OC3CC4OC(=O)/C=C/C=C/C(C(C)O)OCC(O)C5(C)OC5C(=O)OCC2(CC1O)C4(C)C31CO1` (stereo not given), the T/C (dose: 0.31 mg/kg/injection, schedule: Q01DX009 (ip), vehicle: saline + alcohol) was 166 % of control [survivor count not shown], the T/C (dose: 0.62 mg/kg/injection, schedule: Q01DX009 (ip), vehicle: saline + alcohol) was 163 % of control [survivor count not shown] and the T/C (dose: 1.25 mg/kg/injection, schedule: Q01DX009 (ip), vehicle: saline + alcohol) was 157 % of control [survivor count not shown]. The T/C (dose: 2.5 mg/kg/injection, schedule: Q01DX009 (ip), vehicle: saline + alcohol) was 166 % of control [survivor count not shown].

With `CC(=O)OC[C@]12C[C@H](OC(=O)CC(C)C)C(C)=C[C@H]1O[C@@H]1[C@H](O)[C@@H](O)[C@@]2(C)[C@@]12CO2` the T/C (dose: 0.25 mg/kg/injection, schedule: Q01DX009 (ip), vehicle: saline) was 159 % of control [survivor count not shown], the T/C (dose: 0.5 mg/kg/injection, schedule: Q01DX009 (ip), vehicle: saline) was 133 [survivor count not shown], 170 [survivor count not shown], 192 % of control [survivor count not shown] and the T/C (dose: 1.0 mg/kg/injection, schedule: Q01DX009 (ip), vehicle: saline) was 147 [survivor count not shown], 167 [survivor count not shown], 230 % of control [survivor count not shown]. For the same compound, the T/C (dose: 2.0 mg/kg/injection, schedule: Q01DX009 (ip), vehicle: saline) was 146 [survivor count not shown] and 147 % of control [survivor count not shown].

With `C/C1=C/C(=O)OCC23CCC4(C)OC4C2OC2CC(OC(=O)/C=C\C=C/C4OC(C1)OC4C)C3(C)C21CO1` (stereo not given) the T/C (dose: 1.0 mg/kg/injection, schedule: Q01DX009 (ip), vehicle: distilled water + Tween-80) was 113 % of control [survivor count not shown], the T/C (dose: 2.0 mg/kg/injection, schedule: Q01DX009 (ip), vehicle: distilled water + Tween-80) was 109 [survivor count not shown] and 111 % of control [survivor count not shown] and the T/C (dose: 4.0 mg/kg/injection, schedule: Q01DX009 (ip), vehicle: distilled water + Tween-80) was 115 [survivor count not shown] and 123 % of control [survivor count not shown]. For the same compound, the T/C (dose: 8.0 mg/kg/injection, schedule: Q01DX009 (ip), vehicle: distilled water + Tween-80) was 135 [survivor count not shown] and 138 % of control [survivor count not shown], the T/C (dose: 16.0 mg/kg/injection, schedule: Q01DX009 (ip), vehicle: distilled water + Tween-80) was 148 % of control [survivor count not shown] and the T/C (dose: 32.0 mg/kg/injection, schedule: Q01DX009 (ip), vehicle: distilled water + Tween-80) was 172 % of control [survivor count not shown].

`CC(=O)OCC12CCC(C)=CC1OC1C(OC3CCCCO3)C(OC(C)=O)C2(C)C12CO2` (stereo not given) was tested, and the T/C (dose: 0.2 mg/kg/injection, schedule: Q01DX009 (ip), vehicle: other) was 100 % of control [survivor count not shown], the T/C (dose: 0.4 mg/kg/injection, schedule: Q01DX009 (ip), vehicle: other) was 102 % of control [survivor count not shown] and the T/C (dose: 0.8 mg/kg/injection, schedule: Q01DX009 (ip), vehicle: other) was 102 % of control [survivor count not shown]. The T/C (dose: 1.6 mg/kg/injection, schedule: Q01DX009 (ip), vehicle: other) was 101 % of control [survivor count not shown] and the T/C (dose: 3.2 mg/kg/injection, schedule: Q01DX009 (ip), vehicle: other) was 117 % of control [survivor count not shown].

For `CC(=O)OC[C@]12CCC(C)=C[C@H]1O[C@@H]1[C@H](O)[C@@H](OC(C)=O)[C@@]2(C)[C@@]12CO2`, the T/C (dose: 0.18 mg/kg/injection, schedule: Q01DX009 (ip), vehicle: Klucel (hydroxypropylcellulose) (HPC)) was 135 % of control [survivor count not shown], the T/C (dose: 0.37 mg/kg/injection, schedule: Q01DX009 (ip), vehicle: Klucel (hydroxypropylcellulose) (HPC)) was 142 % of control [survivor count not shown] and the T/C (dose: 0.75 mg/kg/injection, schedule: Q01DX009 (ip), vehicle: Klucel (hydroxypropylcellulose) (HPC)) was 143 % of control [survivor count not shown]. The T/C (dose: 1.5 mg/kg/injection, schedule: Q01DX009 (ip), vehicle: Klucel (hydroxypropylcellulose) (HPC)) was 138 % of control [survivor count not shown], the T/C (dose: 3.0 mg/kg/injection, schedule: Q01DX009 (ip), vehicle: Klucel (hydroxypropylcellulose) (HPC)) was 155 % of control [survivor count not shown] and the T/C (dose: 6.0 mg/kg/injection, schedule: Q01DX009 (ip), vehicle: Klucel (hydroxypropylcellulose) (HPC)) was 95 % of control [survivor count not shown].

`CC(=O)OCC12CCC(C)=CC1OC1C(NCCO)C(O)C2(C)C12CO2` (stereo not given) was tested, and the T/C (dose: 5.0 mg/kg/injection, schedule: Q04DX002 (ip), vehicle: water) was 106 [survivor count not shown] and 107 % of control [survivor count not shown], the T/C (dose: 10.0 mg/kg/injection, schedule: Q04DX002 (ip), vehicle: water) was 114 [survivor count not shown] and 119 % of control [survivor count not shown] and the T/C (dose: 20.0 mg/kg/injection, schedule: Q04DX002 (ip), vehicle: water) was 116 [survivor count not shown] and 128 % of control [survivor count not shown]. For the same compound, the T/C (dose: 40.0 mg/kg/injection, schedule: Q04DX002 (ip), vehicle: water) was 121 [survivor count not shown] and 128 % of control [survivor count not shown] and the T/C (dose: 80.0 mg/kg/injection, schedule: Q04DX002 (ip), vehicle: water) was 135 % of control [survivor count not shown].
